These are yes or no findings as the source states them, for the method shown. In cells and extracts the contact can be indirect. Some entries that bind do so weakly or less than the wild type.
Experiments:
[1] = molecular target: T1, α4-integrin (human (endogenous in Jurkat)) (UniProt P13612); assay: co-IP; α4 immunoprecipitated with HP2/1 antibody and protein A/G-Sepharose from 1 mg lysate of Jurkat WT cells, non-treated or oxaliplatin-treated; immunoblot for α4 and CRT; PN buffer with 1% Triton X-100
T1 sequence: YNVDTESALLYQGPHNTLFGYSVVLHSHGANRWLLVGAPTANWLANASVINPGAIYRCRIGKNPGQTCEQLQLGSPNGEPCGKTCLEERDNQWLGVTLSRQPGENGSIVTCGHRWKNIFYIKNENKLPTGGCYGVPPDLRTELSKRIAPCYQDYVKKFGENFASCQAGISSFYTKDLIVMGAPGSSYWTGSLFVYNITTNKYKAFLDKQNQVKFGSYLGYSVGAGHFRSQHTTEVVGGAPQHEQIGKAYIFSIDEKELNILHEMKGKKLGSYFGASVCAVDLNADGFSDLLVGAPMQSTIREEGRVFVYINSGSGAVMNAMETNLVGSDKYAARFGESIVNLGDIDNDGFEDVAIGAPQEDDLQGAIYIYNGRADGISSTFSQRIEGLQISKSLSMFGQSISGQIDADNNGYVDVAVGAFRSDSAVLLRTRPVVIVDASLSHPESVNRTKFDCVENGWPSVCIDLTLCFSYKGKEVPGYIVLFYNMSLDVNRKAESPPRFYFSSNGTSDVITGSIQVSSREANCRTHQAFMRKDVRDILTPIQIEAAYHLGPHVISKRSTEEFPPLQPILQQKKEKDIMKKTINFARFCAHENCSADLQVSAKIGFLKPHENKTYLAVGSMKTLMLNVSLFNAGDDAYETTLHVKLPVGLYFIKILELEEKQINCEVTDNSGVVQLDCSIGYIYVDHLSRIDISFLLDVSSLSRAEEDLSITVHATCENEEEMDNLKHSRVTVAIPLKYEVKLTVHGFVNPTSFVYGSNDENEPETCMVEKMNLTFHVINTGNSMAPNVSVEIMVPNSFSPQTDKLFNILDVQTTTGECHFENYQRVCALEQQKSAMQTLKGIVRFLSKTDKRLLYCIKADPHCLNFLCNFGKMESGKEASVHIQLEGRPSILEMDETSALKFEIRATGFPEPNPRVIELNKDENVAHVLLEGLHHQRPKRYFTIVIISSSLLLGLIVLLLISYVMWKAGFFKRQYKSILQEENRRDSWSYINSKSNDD

[2] = molecular target: T1, α4-integrin (human (endogenous in Jurkat)); assay: co-IP; α4 immunoprecipitated with HP2/1 antibody and protein A/G-Sepharose from 1 mg lysate of ERp57−/− Jurkat cells, non-treated or oxaliplatin-treated; immunoblot for α4 and CRT; PN buffer with 1% Triton X-100

Question: “calreticulin (from UniProt P27797 18-417)” was tested. Which binding [1] did it give?
Answer: binds

Question: What about the binding [2] of the same substance?
Answer: no binding (condition: in ERp57−/− cells)
